Publication PMC11548433
These are yes or no findings as the source states them, for the method shown. A result given as binding can be weak or reduced; the word gives no strength.

Biological target: GmMYB29A1 (Gal4BD-GmMYB29A1) (soybean (Glycine max)) (UniProt Q9S7E3)
Assay: two-hybrid; prey pAD-GmWRKY72 (Gal4AD) and baits as Gal4BD fusions co-transformed into yeast strain PJ69-4a; growth on SD-His-Leu-Trp medium with 40 mM 3AT; pAD empty vector as negative control

GmWRKY72 (Gal4AD-GmWRKY72) (from UniProt K7MKV5)
binding: binds
